According to patent publication US11981719 (ALTEOGEN, dated 2024):
Residue numbers refer to the chain shown, from its start. No constants are given. Whether binding was seen depends on the method and setting. Some binding calls cover weakened binding; strength is not graded here.

T1: recombinant hGH receptor Fc chimera (human, UniProt P10912 19-264)
T1 construct: also called hGH receptor chimera; not shown: Fc part of the chimera
T1 sequence (looked up): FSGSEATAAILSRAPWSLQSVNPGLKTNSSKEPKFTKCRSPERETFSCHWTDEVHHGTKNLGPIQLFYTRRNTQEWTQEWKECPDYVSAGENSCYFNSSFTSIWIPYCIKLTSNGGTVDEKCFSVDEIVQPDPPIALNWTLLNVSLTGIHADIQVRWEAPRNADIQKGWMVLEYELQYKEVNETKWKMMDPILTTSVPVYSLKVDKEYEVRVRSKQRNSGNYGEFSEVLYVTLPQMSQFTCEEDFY

B1: hGH-A10 (ligand)
chain: EDPQGDAANKTDTSHHDQDHPTFNKITPNLAEFAFSLYRQLAHQSNSTNIFFSPVSIATAFAMLSLGTKADTHDEILEGLNFNLTEIPEAQIHEGFQELLHTLNQPDSQLQLTTGNGLFLSEGLKLVDKFLEDVKKLYHSEAFTVNFGDTEEAKKQINDYVEKGTQGKIVDLVKELDRDTVFALVNYIFFKGKWERPFEVKDTEEEDFHVDQVTTVKVPMMKRLGMFNIQHCKKLSSWVLLMKYLGNATAIFFLPDEGKLQHLENELTHDIITKFLENEDRRSASLHLPKLSITGTYDLKSVLGQLGITKVFSNGADLSGVTEEAPLKLSKAVHKAVLTIDEKGTEAAGAMFLEAINMSIPPEVKFNKPFVFLMIDQNTKSPLFMGKVVNPTQKFPTIPLSRLFDNAMLRAHRLNQLAFDTYQEFEEAYIPKEQKYSFLQNPQTSLCPSESIPTPSNKEETQQKSNLELLRISLLLIQSWLEPVQFLRSVFANSLVYGASDSNVYDLLKDLEEKIQTLMGRLEDGSPRTGQIFKQTYSKFDTNSHNDDALLKNYGLLYCFNKDMSKVSTYLRIVQCRSVEGSCGF
notes: also called hGHRA-NexP
B2: hGH-A11 (ligand)
chain: B1 chain with H412D, Q440K, P448F, K458R, N561R, S565D, Y570F, I573T
notes: also called hGHRA-NexP
B3: hGH-A4 (ligand)
chain: FPTIPLSRLFDNAMLRADRLNQLAFDTYQEFEEAYIPKEQKYSFLQNPQTSLCFSESIPTPSNREETQQKSNLELLRISLLLIQSWLEPVQFLRSVFANSLVYGASDSNVYDLLKDLEEKIQTLMGRLEDGSPRTGQIFKQTYSKFDTNSHNDDALLKNYGLLYCFRKDMDKVSTFLRTVQCRSVEGSCGFEDPQGDAANKTDTSHHDQDHPTFNKITPNLAEFAFSLYRQLAHQSNSTNIFFSPVSIATAFAMLSLGTKADTHDEILEGLNFNLTEIPEAQIHEGFQELLHTLNQPDSQLQLTTGNGLFLSEGLKLVDKFLEDVKKLYHSEAFTVNFGDTEEAKKQINDYVEKGTQGKIVDLVKELDRDTVFALVNYIFFKGKWERPFEVKDTEEEDFHVDQVTTVKVPMMKRLGMFNIQHCKKLSSWVLLMKYLGNATAIFFLPDEGKLQHLENELTHDIITKFLENEDRRSASLHLPKLSITGTYDLKSVLGQLGITKVFSNGADLSGVTEEAPLKLSKAVHKAVLTIDEKGTEAAGAMFLEAINMSIPPEVKFNKPFVFLMIDQNTKSPLFMGKVVNPTQK
notes: also called hGHRA-NexP
B4: hGH-A9 (ligand)
chain: B3 chain with Q46K
notes: also called hGHRA-NexP
B5: hGH-A7 (ligand)
chain: B3 chain with D18H, F54P, R64K, R167N, D171S, F176Y, T179I
notes: also called hGHRA-NexP
B6: hGH-A6 (ligand)
chain: B3 chain with D18H, F54P, R64K, F176Y, T179I
notes: also called hGHRA-NexP
B7: hGH-A8 (ligand)
chain: B3 chain with R167N, K168A, D171S, K172R
notes: also called hGHRA-NexP

biological target: T1, recombinant hGH receptor Fc chimera; assay: ELISA on plate-coated recombinant hGH receptor Fc chimera

Binder | binding
B1 | binds
B2 | binds
B3 | binds
B4 | binds
B5 | binds
B6 | binds
B7 | binds
